# Assay results taken from PubChem BioAssay (NCATS).
# The chains behind the UniProt entries cited, without tags or fusion partners. Where a name states a change or a piece, a line headed by the entry shows the natural chain unless it says otherwise.
# UniProt O15648: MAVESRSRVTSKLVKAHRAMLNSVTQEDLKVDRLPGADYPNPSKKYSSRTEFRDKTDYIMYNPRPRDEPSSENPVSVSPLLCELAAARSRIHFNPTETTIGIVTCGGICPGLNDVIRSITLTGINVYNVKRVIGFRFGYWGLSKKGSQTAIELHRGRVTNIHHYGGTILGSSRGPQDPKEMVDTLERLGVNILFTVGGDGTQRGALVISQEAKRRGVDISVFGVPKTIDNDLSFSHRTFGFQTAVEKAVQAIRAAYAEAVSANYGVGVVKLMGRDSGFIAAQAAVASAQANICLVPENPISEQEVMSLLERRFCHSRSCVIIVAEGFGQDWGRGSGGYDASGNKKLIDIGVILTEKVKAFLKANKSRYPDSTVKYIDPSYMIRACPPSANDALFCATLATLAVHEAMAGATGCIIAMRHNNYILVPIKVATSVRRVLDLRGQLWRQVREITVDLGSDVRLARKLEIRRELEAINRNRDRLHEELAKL
# UniProt O94782: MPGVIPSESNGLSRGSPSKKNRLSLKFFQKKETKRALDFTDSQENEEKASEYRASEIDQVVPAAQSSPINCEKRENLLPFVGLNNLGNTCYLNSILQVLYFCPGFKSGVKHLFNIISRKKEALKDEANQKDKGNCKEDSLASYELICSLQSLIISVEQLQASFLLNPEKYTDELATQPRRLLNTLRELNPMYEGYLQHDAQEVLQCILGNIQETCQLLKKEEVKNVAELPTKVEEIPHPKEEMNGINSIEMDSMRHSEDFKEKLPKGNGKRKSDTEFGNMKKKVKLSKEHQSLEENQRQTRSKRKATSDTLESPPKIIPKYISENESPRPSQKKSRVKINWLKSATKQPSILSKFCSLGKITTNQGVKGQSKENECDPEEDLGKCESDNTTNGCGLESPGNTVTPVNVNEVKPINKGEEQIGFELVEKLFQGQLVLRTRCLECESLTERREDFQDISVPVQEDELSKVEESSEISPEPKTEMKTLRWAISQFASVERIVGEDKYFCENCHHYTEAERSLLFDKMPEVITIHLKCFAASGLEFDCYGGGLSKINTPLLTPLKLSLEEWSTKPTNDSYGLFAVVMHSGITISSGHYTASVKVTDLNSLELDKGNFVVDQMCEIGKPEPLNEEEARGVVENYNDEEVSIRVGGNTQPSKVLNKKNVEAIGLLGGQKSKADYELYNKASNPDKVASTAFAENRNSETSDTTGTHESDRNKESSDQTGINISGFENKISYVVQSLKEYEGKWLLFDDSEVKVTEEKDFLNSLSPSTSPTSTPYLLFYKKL
# Inconclusive means that the source gave no clear call. Such entries were picked first, then a sample of the others. For part of these data: Where the call is inconclusive, the potency comes from a doubtful curve fit. Calls of active or inactive are those of the source. Unless noted, calls follow the shape of the dose curve; as a rule, active = well fitted curve in the direction sought with a large enough effect; inconclusive = small, poorly fitted or top-dose-only effect, or another doubt; inactive = no such curve, though single readings can be large; an effect the other way counts as inactive or inconclusive.
# What was measured:
# [1] = Stat Signaling Pathway (AID 446; active = well fitted curve in either direction with a large enough effect, not every such curve was filed as active; inconclusive = small, poorly fitted or top-dose-only effect, or another doubt;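 also: ME-180 cervical cancer cells given 40 pM IL-6 alongside compound; SIE-controlled beta-lactamase reporter measured as 460/530 nm FRET emission ratio; % is scaled to controls: 0 for no effect and ±100 for the full control effect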); details: ME-180 (cervical carcinoma) SIE beta-lactamase reporter, IL-6 stimulated, 5 h; at 7.69 µM (top of the series) unless noted
# In short: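 Compound effects on IL-6-induced STAT reporter activity were measured in ME-180 cells. After overnight culture, cells were co-treated with 40 pM IL-6 for 5 hrs before beta-lactamase substrate loading at room temperature.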
# [2] = target: Mitogen-activated protein kinase 10 (Mus musculus) (UniProt Q61831); assay: JNK3 AlphaScreen Assay (AID 530; active = well fitted curve in either direction with a large enough effect, not every such curve was filed as active; inconclusive = small, poorly fitted or top-dose-only effect, or another doubt;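 also: kinase came from lysate of stimulated human HepG2 cells; signal reports phosphorylation of biotinylated GST-cJun 1-79 at Ser73 with 10 µM ATP; % is scaled to controls: 0 for no effect and ±100 for the full control effect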); details: JNK3 lysate, c-Jun phosphorylation; activity change, negative = inhibition: at 57.1 µM (top of the series)
# In short: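 Phosphorylation of biotinylated GST-cJun(1-79) at Ser73 is measured by AlphaScreen proximity luminescence. Enzyme is JNK3 in HepG2 lysates activated with interleukin-1beta and tumor necrosis factor alpha; ATP is 10 uM final.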
# [3] = target: ATP-dependent 6-phosphofructokinase (Trypanosoma brucei brucei) (UniProt O15648); assay: qHTS Assay to Find Inhibitors of T. brucei phosphofructokinase: hit validation (AID 492961);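 also: luminescence reports ADP formed as PFK phosphorylates fructose-6-phosphate with ATP; % is scaled to controls: 0 for no effect and ±100 for the full control effect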
# In short: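 Reaction: 0.1 M triethanolamine pH 8.0, 5 mM MgCl2, F6P 0.5 mM, ATP 0.1 mM, PFK 1.25 nM, 45 min RT. Read-out: ADP-Glo luminescence. Analysis: concentration-response fits, classed by r2 and efficacy.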
# [4] = target: Ubiquitin carboxyl-terminal hydrolase 1 (Homo sapiens) (UniProt O94782); assay: Inhibitors of USP1/UAF1: Pilot qHTS (AID 504865); also: potency is read from the fitted curve at half-maximal effect; nearly all actives have a fitted effect of over 35% in size
# In short: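 USP1/UAF1 complex at 1 nM preincubated 15 min at room temperature with compound, then Ub-Rho substrate added at 150 nM final. Fluorescence (480/540 nm) read kinetically in 50 mM HEPES pH 7.8, 0.5 mM EDTA, 1 mM TCEP, 0.1 mg/ml BSA, 0.01% Tween-20.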
# 3D7 = assay: qHTS profiling for inhibitors of Plasmodium falciparum proliferation (AID 504749); also: nearly all actives have a fitted effect of over 60% in size; also: potency is read from the fitted curve at half-maximal effect;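 as to activity, negative = inhibition: 0% = DMSO vehicle and full inhibition = artemisinin control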; details: P. falciparum in erythrocytes, SYBR Green DNA, 72 h; series mostly up to 28.7 µM
# In short: (§1)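 Quantitative HTS: compounds pinned into medium, infected erythrocytes added (0.3% parasitemia, 2.5% hematocrit), 72 h culture at 37 C under 5% CO2. Saponin/Triton lysis with SYBR Green I, overnight RT, then fluorescence read.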
# 7G8 = assay: as above; details: P. falciparum in erythrocytes, SYBR Green DNA, 72 h; series mostly up to 28.7 µM
# In short: as §1
# AA1029 = assay: as above; details: P. falciparum in erythrocytes, SYBR Green DNA, 72 h; series mostly up to 28.7 µM
# In short: as §1
# CP185 = assay: as above; details: P. falciparum in erythrocytes, SYBR Green DNA, 72 h; series mostly up to 28.7 µM
# In short: as §1
# CP194 = assay: as above; details: P. falciparum in erythrocytes, SYBR Green DNA, 72 h; series mostly up to 28.7 µM
# In short: as §1
# CP201 = assay: as above; details: P. falciparum in erythrocytes, SYBR Green DNA, 72 h; series mostly up to 28.7 µM
# In short: as §1
# CP203 = assay: as above; details: P. falciparum in erythrocytes, SYBR Green DNA, 72 h; series mostly up to 28.7 µM
# In short: as §1
# CP211 = assay: as above; details: P. falciparum in erythrocytes, SYBR Green DNA, 72 h; series mostly up to 28.7 µM
# In short: as §1
# CP215 = assay: as above; details: P. falciparum in erythrocytes, SYBR Green DNA, 72 h; series mostly up to 28.7 µM
# In short: as §1
# CP237 = assay: as above; details: P. falciparum in erythrocytes, SYBR Green DNA, 72 h; series mostly up to 28.7 µM
# In short: as §1
# CP238 = assay: as above; details: P. falciparum in erythrocytes, SYBR Green DNA, 72 h; series mostly up to 28.7 µM
# In short: as §1
# CP247 = assay: as above; details: P. falciparum in erythrocytes, SYBR Green DNA, 72 h; series mostly up to 28.7 µM
# In short: as §1
# CP252 = assay: as above; details: P. falciparum in erythrocytes, SYBR Green DNA, 72 h; series mostly up to 28.7 µM
# In short: as §1
# CP256 = assay: as above; details: P. falciparum in erythrocytes, SYBR Green DNA, 72 h; series mostly up to 28.7 µM
# In short: as §1
# CP260 = assay: as above; details: P. falciparum in erythrocytes, SYBR Green DNA, 72 h; series mostly up to 28.7 µM
# In short: as §1
# CP262 = assay: as above; details: P. falciparum in erythrocytes, SYBR Green DNA, 72 h; series mostly up to 28.7 µM
# In short: as §1
# CP265 = assay: as above; details: P. falciparum in erythrocytes, SYBR Green DNA, 72 h; series mostly up to 28.7 µM
# In short: as §1
# CP266 = assay: as above; details: P. falciparum in erythrocytes, SYBR Green DNA, 72 h; activity, negative = inhibition: at 28.7 µM (top of the series)
# In short: as §1
# CP268 = assay: as above; details: P. falciparum in erythrocytes, SYBR Green DNA, 72 h; series mostly up to 28.7 µM
# In short: as §1
# CP269 = assay: as above; details: P. falciparum in erythrocytes, SYBR Green DNA, 72 h; series mostly up to 12.8 µM
# In short: as §1
# CP286 = assay: as above; details: P. falciparum in erythrocytes, SYBR Green DNA, 72 h; series mostly up to 28.7 µM
# In short: as §1
# CP291 = assay: as above; details: P. falciparum in erythrocytes, SYBR Green DNA, 72 h; series mostly up to 28.7 µM
# In short: as §1
# CP297 = assay: as above; details: P. falciparum in erythrocytes, SYBR Green DNA, 72 h; activity, negative = inhibition: at 12.8 µM (top of the series) unless noted
# In short: as §1
# CP305 = assay: as above; details: P. falciparum in erythrocytes, SYBR Green DNA, 72 h; series mostly up to 28.7 µM
# In short: as §1
# CP315 = assay: as above; details: P. falciparum in erythrocytes, SYBR Green DNA, 72 h; series mostly up to 28.7 µM
# In short: as §1
# CP325 = assay: as above; details: P. falciparum in erythrocytes, SYBR Green DNA, 72 h; series mostly up to 28.7 µM
# In short: as §1
# CP329 = assay: as above; details: P. falciparum in erythrocytes, SYBR Green DNA, 72 h; series mostly up to 28.7 µM
# In short: as §1
# CP335 = assay: as above; details: P. falciparum in erythrocytes, SYBR Green DNA, 72 h; series mostly up to 28.7 µM
# In short: as §1
# DIV17 = assay: as above; details: P. falciparum in erythrocytes, SYBR Green DNA, 72 h; activity, negative = inhibition: at 28.7 µM (top of the series) unless noted
# In short: as §1
# DIV30 = assay: as above; details: P. falciparum in erythrocytes, SYBR Green DNA, 72 h; series mostly up to 28.7 µM
# In short: as §1
# Dd2 = assay: as above; details: P. falciparum in erythrocytes, SYBR Green DNA, 72 h; series mostly up to 28.7 µM
# In short: as §1
# GB4 = assay: as above; details: P. falciparum in erythrocytes, SYBR Green DNA, 72 h; series mostly up to 28.7 µM
# In short: as §1
# ICS = assay: as above; details: P. falciparum in erythrocytes, SYBR Green DNA, 72 h; series mostly up to 28.7 µM
# In short: as §1
# N140 = assay: as above; details: P. falciparum in erythrocytes, SYBR Green DNA, 72 h; series mostly up to 28.7 µM
# In short: as §1
# P93_24 = assay: as above; details: P. falciparum in erythrocytes, SYBR Green DNA, 72 h; series mostly up to 28.7 µM
# In short: as §1
# P94_40 = assay: as above; details: P. falciparum in erythrocytes, SYBR Green DNA, 72 h; series mostly up to 28.7 µM
# In short: as §1
# PC26 = assay: as above; details: P. falciparum in erythrocytes, SYBR Green DNA, 72 h; activity, negative = inhibition: at 28.7 µM (top of the series)
# In short: as §1
# TAB109 = assay: as above; details: P. falciparum in erythrocytes, SYBR Green DNA, 72 h; series mostly up to 28.7 µM
# In short: as §1
smiles,measurement,setting,value
CCC(=O)O[C@@H]1[C@H](C)O[C@H](O[C@H]2[C@@H](N(C)C)[C@H](O)[C@@H](O[C@@H]3[C@@H](CC=O)C[C@@H](C)[C@@H](O)/C=C\C=C/C[C@@H](C)OC(=O)C[C@@H](OC(=O)CC)[C@H]3OC)O[C@H]2C)C[C@]1(C)O,"activity, negative = inhibition",[1],inactive: -4.78% [at 17.2 µM]
same,Potency,[2],inactive
same,Potency,[3],inactive
same,Potency,[4],"inconclusive: 39.8 µM [inhibitor, single point]"
same,Potency,3D7,inactive
same,Potency,7G8,"inconclusive: 5.62 µM [inhibitor, partial curve, poor fit]"
same,Potency,AA1029,"inconclusive: 2.51 µM [inhibitor, partial curve]"
same,Potency,CP185,"inconclusive: 2.82 µM [inhibitor, partial curve]"
same,Potency,CP194,"inconclusive: 2.87 µM [inhibitor, partial curve]"
same,Potency,CP201,"inconclusive: 2.56 µM [inhibitor, partial curve]"
same,Potency,CP203,"inconclusive: 3.22 µM [inhibitor, partial curve, poor fit]"
same,Potency,CP211,"inconclusive: 3.22 µM [inhibitor, partial curve]"
same,Potency,CP215,"inconclusive: 3.61 µM [inhibitor, partial curve]"
same,Potency,CP237,"inconclusive: 2.82 µM [inhibitor, partial curve]"
same,Potency,CP238,"inconclusive: 3.98 µM [inhibitor, single point]"
same,Potency,CP247,inactive
same,Potency,CP252,"inconclusive: 3.16 µM [inhibitor, partial curve]"
same,Potency,CP256,"inconclusive: 2.51 µM [inhibitor, partial curve]"
same,Potency,CP260,"inconclusive: 2.51 µM [inhibitor, partial curve]"
same,Potency,CP262,"inconclusive: 2.87 µM [inhibitor, partial curve]"
same,Potency,CP265,"inconclusive: 3.98 µM [inhibitor, single point]"
same,Potency,CP266,"inconclusive: 4.55 µM [inhibitor, single point]"
same,Potency,CP268,"inconclusive: 4.55 µM [inhibitor, partial curve]"
same,Potency,CP269,"inconclusive: 2.87 µM [inhibitor, partial curve]"
same,Potency,CP286,"inconclusive: 2 µM [inhibitor, partial curve]"
same,Potency,CP291,"inconclusive: 4.55 µM [inhibitor, partial curve]"
same,Potency,CP297,"inconclusive: 4.05 µM [inhibitor, partial curve, poor fit]"
same,Potency,CP305,"inconclusive: 2.28 µM [inhibitor, partial curve]"
same,Potency,CP315,"inconclusive: 9.07 µM [inhibitor, single point]"
same,Potency,CP325,"inconclusive: 2.87 µM [inhibitor, partial curve]"
same,Potency,CP329,"inconclusive: 3.61 µM [inhibitor, partial curve]"
same,Potency,CP335,"inconclusive: 4.55 µM [inhibitor, partial curve]"
same,Potency,DIV17,"inconclusive: 6.42 µM [inhibitor, single point]"
same,Potency,DIV30,inactive
same,Potency,Dd2,active: 3.16 µM
same,Potency,GB4,inactive
same,Potency,ICS,"inconclusive: 3.55 µM [inhibitor, partial curve, poor fit]"
same,Potency,N140,"inconclusive: 4.47 µM [inhibitor, single point]"
same,Potency,P93_24,"inconclusive: 2.51 µM [inhibitor, partial curve]"
same,Potency,P94_40,"inconclusive: 1.78 µM [inhibitor, partial curve]"
same,Potency,PC26,inactive
same,Potency,TAB109,"inconclusive: 1.58 µM [inhibitor, partial curve]"

# Exported as tab-separated lines: part of the list above.
smiles	measurement	setting	value
CCC(=O)O[C@@H]1[C@H](C)O[C@H](O[C@H]2[C@@H](N(C)C)[C@H](O)[C@@H](O[C@@H]3[C@@H](CC=O)C[C@@H](C)[C@@H](O)/C=C\C=C/C[C@@H](C)OC(=O)C[C@@H](OC(=O)CC)[C@H]3OC)O[C@H]2C)C[C@]1(C)O	Potency	CP203	inconclusive: 3.22 µM [inhibitor, partial curve, poor fit]
same	Potency	CP215	inconclusive: 3.61 µM [inhibitor, partial curve]
same	Potency	CP268	inconclusive: 4.55 µM [inhibitor, partial curve]
